These are yes or no findings as the source states them, for the method shown. In cells and extracts the contact can be indirect. Some entries that bind do so weakly or less than the wild type.
Target: embryonic lethal abnormal vision like RNA binding protein 1 (ELAVL1) (human (endogenous in A431 and HSC-5)) (UniProt Q15717)
Test: co-IP; lysates of MG132-treated A431 and HSC-5 cells infected with sh-LINC00460 or sh-NC; Protein-A/G MagBeads with anti-ELAVL1 or anti-β-TrCP antibody overnight at 4 °C; western blotting with anti-ELAVL1 or anti-βTrCP

Sequences of proteins named here, by UniProt entry; tags and fusion partners are left off.
UniProt Q15717: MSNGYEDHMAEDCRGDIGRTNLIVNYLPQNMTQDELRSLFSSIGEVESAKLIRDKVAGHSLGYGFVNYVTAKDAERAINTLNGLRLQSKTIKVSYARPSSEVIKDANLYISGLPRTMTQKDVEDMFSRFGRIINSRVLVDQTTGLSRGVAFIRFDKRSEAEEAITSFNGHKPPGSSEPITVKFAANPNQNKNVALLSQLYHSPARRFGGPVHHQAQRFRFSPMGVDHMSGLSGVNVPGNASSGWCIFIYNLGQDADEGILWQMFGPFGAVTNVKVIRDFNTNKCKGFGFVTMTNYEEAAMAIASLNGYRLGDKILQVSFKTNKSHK
UniProt Q9Y297: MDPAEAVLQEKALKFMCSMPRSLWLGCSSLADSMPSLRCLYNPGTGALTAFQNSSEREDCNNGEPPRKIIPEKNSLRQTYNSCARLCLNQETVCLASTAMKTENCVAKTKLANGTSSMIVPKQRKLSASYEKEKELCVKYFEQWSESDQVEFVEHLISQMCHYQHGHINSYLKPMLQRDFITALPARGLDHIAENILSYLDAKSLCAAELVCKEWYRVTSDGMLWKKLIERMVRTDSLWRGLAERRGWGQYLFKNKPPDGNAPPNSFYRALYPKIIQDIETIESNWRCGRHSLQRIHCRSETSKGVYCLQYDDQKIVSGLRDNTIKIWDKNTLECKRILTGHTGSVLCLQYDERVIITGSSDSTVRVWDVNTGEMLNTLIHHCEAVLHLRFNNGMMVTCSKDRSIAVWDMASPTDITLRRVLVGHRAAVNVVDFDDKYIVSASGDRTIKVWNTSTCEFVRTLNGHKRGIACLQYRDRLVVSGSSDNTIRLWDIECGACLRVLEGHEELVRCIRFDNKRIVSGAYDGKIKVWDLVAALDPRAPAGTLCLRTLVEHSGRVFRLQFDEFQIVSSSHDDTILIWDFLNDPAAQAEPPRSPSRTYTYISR

β-transducin repeats-containing protein (β-TrCP) (from UniProt Q9Y297 1-605)
binding: binds
